Measured values as given in doi:10.1101/575241.
Like-named read-outs stand apart in the source and are kept apart here. These are yes or no findings as the source states them, for the method shown. Some results given as binding are weak or reduced against the parent protein; the word gives no strength.

Protein sequences, listed by entry. Tags and fused reporters are not part of them. Lines headed by an entry give the natural chain unless they say otherwise; changes in a name come on top. Chains listed by the source or under a name are the forms on record and can include a tag or linker. Residues count along the entry.
UniProt P36096, residues 655-758: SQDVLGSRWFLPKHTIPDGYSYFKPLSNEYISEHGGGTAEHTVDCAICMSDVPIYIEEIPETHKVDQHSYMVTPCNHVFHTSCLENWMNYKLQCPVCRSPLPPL
UniProt Q06651: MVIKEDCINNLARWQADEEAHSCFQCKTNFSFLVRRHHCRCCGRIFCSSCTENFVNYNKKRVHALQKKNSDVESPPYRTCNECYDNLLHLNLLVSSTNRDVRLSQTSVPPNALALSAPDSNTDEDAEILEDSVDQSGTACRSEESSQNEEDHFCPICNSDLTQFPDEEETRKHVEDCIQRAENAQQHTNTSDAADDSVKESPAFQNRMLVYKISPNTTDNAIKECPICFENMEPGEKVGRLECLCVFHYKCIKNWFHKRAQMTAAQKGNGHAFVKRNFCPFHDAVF
UBE2V1 (Q13404-2, form named): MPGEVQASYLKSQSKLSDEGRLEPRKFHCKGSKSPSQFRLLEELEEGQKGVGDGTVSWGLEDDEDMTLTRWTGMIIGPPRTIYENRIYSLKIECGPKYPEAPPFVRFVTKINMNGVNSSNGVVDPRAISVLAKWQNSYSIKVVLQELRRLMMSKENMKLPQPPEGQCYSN
UniProt P33296: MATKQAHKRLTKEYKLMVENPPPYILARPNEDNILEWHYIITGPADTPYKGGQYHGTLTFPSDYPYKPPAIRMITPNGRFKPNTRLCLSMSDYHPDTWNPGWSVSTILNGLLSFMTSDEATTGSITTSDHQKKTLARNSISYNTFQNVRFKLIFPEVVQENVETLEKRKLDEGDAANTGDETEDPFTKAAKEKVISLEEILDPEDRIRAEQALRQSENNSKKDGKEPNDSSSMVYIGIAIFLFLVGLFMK
UniProt P61088: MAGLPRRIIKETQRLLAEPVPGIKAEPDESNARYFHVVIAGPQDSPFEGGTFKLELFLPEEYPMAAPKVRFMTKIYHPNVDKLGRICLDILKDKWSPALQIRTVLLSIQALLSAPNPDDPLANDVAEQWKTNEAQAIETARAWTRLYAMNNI
UniProt P15731: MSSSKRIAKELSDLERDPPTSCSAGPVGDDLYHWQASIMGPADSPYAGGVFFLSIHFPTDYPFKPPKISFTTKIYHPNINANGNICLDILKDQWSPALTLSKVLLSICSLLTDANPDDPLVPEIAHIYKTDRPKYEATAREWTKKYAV
UniProt Q15819: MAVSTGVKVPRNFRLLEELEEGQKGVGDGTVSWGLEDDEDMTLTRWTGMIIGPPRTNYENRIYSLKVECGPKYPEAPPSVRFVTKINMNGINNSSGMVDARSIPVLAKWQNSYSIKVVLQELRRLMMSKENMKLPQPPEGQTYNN

How the values were obtained:
Test in all cases: two-hybrid
Human ZNRF2 (human) [1] = target: T1, Human ZNRF2 (human) (UniProt Q8NHG8)
T1 sequence: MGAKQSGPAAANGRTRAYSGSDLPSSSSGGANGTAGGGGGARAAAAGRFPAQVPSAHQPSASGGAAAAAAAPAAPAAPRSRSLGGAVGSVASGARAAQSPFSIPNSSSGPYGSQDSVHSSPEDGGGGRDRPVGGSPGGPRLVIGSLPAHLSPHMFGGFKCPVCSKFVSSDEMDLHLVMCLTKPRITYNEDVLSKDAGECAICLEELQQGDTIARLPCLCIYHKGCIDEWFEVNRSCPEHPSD

[2] = target: Tul1 (aa 655-758) (S. cerevisiae) (UniProt P36096)
Pib1 (S. cerevisiae) [3] = target: Pib1 (S. cerevisiae) (UniProt Q06651)
Pib1 (S. cerevisiae) [4] = target: Pib1 (S. cerevisiae) (UniProt Q06651); remark: listed apart in the source
Human ZNRF2 (human) [5] = target: T1, Human ZNRF2 (human); remark: listed apart in the source
[6] = target: Tul1 (aa 655-758) (S. cerevisiae) (UniProt P36096); remark: listed apart in the source

For UBE2V1 (from UniProt Q13404-2 1-170), the binding (Human ZNRF2 (human) [1]) was “binds weakly”.

For “Ubc6 (from UniProt P33296 1-250) (enzyme)”, the binding [2] was “binds weakly”.

“human UBC13 (from UniProt P61088 1-152) (enzyme)” was tested, and the binding (Human ZNRF2 (human) [1]) was “binds”.

For “Ubc4 (from UniProt P15731 1-148) (enzyme)”, the binding [2] was “no binding”.

With UBE2V2 (from UniProt Q15819 1-145) the binding (Human ZNRF2 (human) [1]) was “binds weakly”.

B1: Ubc13 (enzyme, UniProt P52490 1-153)
chain: MASLPKRIIKETEKLVSDPVPGITAEPHDDNLRYFQVTIEGPEQSPYEDGIFELELYLPDDYPMEAPKVRFLTKIYHPNIDRLGRICLDVLKTNWSPALQIRTVLLSIQALLASPNPNDPLANDVAEDWIKNEQGAKAKAREWTKLYAKKKPE
With B1 the binding (Pib1 (S. cerevisiae) [3]) was “binds”, the binding (Pib1 (S. cerevisiae) [4]) was “binds” and the binding (Human ZNRF2 (human) [5]) was “binds”. The binding [6] was “binds weakly”.

B2: Mms2 (protein, UniProt P53152 1-137)
chain: MSKVPRNFRLLEELEKGEKGFGPESCSYGLADSDDITMTKWNGTILGPPHSNHENRIYSLSIDCGPNYPDSPPKVTFISKINLPCVNPTTGEVQTDFHTLRDWKRAYTMETLLLDLRKEMATPANKKLRQPKEGETF
For B2, the binding (Human ZNRF2 (human) [5]) was “binds weakly” and the binding [6] was “binds weakly”.
